Laboratory results: doi:10.64898/2025.12.08.692968

Protein sequences, listed by entry. Tags and fused reporters are not part of them.
UniProt P23116: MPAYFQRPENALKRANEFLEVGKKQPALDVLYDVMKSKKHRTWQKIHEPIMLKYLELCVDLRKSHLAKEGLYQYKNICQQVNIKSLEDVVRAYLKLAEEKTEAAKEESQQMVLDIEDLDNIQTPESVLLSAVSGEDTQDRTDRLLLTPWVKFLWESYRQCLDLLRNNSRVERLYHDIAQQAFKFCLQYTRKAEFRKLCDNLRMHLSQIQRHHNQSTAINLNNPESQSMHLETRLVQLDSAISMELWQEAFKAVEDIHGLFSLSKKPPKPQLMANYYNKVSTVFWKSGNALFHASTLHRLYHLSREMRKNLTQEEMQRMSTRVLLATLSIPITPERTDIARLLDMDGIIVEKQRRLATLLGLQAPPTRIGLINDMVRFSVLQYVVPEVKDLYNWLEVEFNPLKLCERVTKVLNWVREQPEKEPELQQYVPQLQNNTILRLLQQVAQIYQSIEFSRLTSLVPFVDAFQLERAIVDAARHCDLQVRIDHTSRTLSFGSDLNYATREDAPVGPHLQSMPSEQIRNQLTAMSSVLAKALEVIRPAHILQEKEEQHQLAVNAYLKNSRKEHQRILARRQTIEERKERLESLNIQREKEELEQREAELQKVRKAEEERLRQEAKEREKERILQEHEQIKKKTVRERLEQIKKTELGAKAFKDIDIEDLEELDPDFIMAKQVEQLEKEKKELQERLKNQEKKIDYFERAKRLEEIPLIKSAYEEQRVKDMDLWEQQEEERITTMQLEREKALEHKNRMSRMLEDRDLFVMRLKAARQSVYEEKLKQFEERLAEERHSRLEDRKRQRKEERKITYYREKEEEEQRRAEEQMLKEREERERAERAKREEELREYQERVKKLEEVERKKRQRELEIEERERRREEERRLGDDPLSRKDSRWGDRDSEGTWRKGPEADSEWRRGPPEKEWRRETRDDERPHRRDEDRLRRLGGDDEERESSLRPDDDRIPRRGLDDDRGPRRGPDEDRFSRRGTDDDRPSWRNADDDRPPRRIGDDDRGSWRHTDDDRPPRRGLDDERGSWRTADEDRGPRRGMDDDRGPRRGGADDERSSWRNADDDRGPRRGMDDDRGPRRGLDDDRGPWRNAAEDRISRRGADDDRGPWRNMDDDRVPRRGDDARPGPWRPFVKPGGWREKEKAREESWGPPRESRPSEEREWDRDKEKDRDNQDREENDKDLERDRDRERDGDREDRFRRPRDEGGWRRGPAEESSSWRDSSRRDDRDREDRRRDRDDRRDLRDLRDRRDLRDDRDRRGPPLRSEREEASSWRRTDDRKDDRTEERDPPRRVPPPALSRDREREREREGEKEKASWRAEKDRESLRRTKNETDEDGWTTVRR

T1: TENT5A (Tent5a_Myc) (mouse) (UniProt D3Z5S8)
T1 sequence: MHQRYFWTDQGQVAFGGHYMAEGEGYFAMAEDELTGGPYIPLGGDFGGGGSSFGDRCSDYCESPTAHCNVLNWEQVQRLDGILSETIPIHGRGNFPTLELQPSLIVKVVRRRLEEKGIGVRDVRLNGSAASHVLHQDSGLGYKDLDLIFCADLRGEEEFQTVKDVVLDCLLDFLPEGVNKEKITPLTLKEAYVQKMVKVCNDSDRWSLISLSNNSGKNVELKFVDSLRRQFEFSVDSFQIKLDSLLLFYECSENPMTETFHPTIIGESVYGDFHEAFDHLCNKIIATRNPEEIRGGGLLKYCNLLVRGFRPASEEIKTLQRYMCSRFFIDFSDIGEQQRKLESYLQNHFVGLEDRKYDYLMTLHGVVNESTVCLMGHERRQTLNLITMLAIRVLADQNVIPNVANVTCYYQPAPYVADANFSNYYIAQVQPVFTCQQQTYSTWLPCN

B1: CPSF7, a cleavage and poly(A)denylation factor (protein, UniProt Q8BTV2 1-471)
chain: MSEGVDLIDIYADEEFNQDSEFNNTDQIDLYDDVLTAASQPSDDRSSSTEPPPPVRQEPAPKPNNKTPAILYTYSGLRSRRAAVYVGSFSWWTTDQQLIQVIRSIGVYDVVELKFAENRANGQSKGYAEVVVASENSVHKLLELLPGKVLNGEKVDVRPATRQNLSQFEAQARKRECVRVPRGGIPPRAHSRDSSDSADGRATPSENLVPSSARVDKPPSVLPYFNRPPSALPLMGLPPPPIPPPPPLSSSFGVPPPPPGIHYQHLMPPPPRLPPHLAVPPPGAIPPALHLNPAFFPPPNATVGPPPDTYMKASTPYNHHGSRDSGPPPSTVSEAEFEEIMKRNRAISSSAISKAVSGASAGDYSDAIETLLTAIAVIKQSRVANDERCRVLISSLKDCLHGIEAKSYSVGASGSSSRKRHRSRERSPSRSRESSRRHRDLLHNEDRHDDYFQERNREHERHRDRERDRHH
B2: Granulin (GRN) (protein, UniProt P28798 18-589)
chain: TQCPDGQFCPVACCLDQGGANYSCCNPLLDTWPRITSHHLDGSCQTHGHCPAGYSCLLTVSGTSSCCPFSKGVSCGDGYHCCPQGFHCSADGKSCFQMSDNPLGAVQCPGSQFECPDSATCCIMVDGSWGCCPMPQASCCEDRVHCCPHGASCDLVHTRCVSPTGTHTLLKKFPAQKTNRAVSLPFSVVCPDAKTQCPDDSTCCELPTGKYGCCPMPNAICCSDHLHCCPQDTVCDLIQSKCLSKNYTTDLLTKLPGYPVKEVKCDMEVSCPEGYTCCRLNTGAWGCCPFAKAVCCEDHIHCCPAGFQCHTEKGTCEMGILQVPWMKKVIAPLRLPDPQILKSDTPCDDFTRCPTNNTCCKLNSGDWGCCPIPEAVCCSDNQHCCPQGFTCLAQGYCQKGDTMVAGLEKIPARQTTPLQIGDIGCDQHTSCPVGQTCCPSLKGSWACCQLPHAVCCEDRQHCCPAGYTCNVKARTCEKDVDFIQPPVLLTLGPKVGNVECGEGHFCHDNQTCCKDSAGVWACCPYLKGVCCRDGRHCCPGGFHCSARGTKCLRKKIPRWDMFLRDPVPRPLL
B3: Erlin2 (protein, UniProt Q8BFZ9 1-340)
chain: MAQLGAVVAVASSFFCASLFSAVHKIEEGHIGVYYRGGALLTSTSGPGFHLMLPFITSYKSVQTTLQTDEVKNVPCGTSGGVMIYFDRIEVVNFLVPNAVYDIVKNYTADYDKALIFNKIHHELNQFCSVHTLQEVYIELFDQIDENLKLALQQDLTSMAPGLVIQAVRVTKPNIPEAIRRNYELMESEKTKLLIAAQKQKVVEKEAETERKKALIEAEKVAQVAEITYGQKVMEKETEKKISEIEDAAFLAREKAKADAECYTALKIAEANKLKLTPEYLQLMKYKAIASNSKIYFGKDIPNMFMDSAGGLGKQFEGLSDDKLGFGLEDEPLEAPTKEN

What follows are molecules tested against T1, TENT5A (Tent5a_Myc) (mouse) (assay: affinity purification with mass spectrometry).

binding, binds:
EIF3A translation initiation protein (from UniProt P23116 1-1344)
B1
B2
B3

These are yes or no findings as the source states them, for the method shown. In cells and extracts the contact can be indirect. A yes stands for co-enrichment or nearness to the bait. Other partners may have been found. Tags and fused reporters may be left off the sequences shown.
